Results deposited as PubChem BioAssay AID1508588 (Peter MacCallum Cancer Centre, 2020).

Test: 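Knock-downs boosting vemurafenib effects on melanoma cell growth or lactate release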 (primary screen)
Cell system: human WM266.4 melanoma cells (BRAF V600 mutant)
Reagent: siRNA pool against human genes, 40 nM
Time to read-out: 96 h from transfection to read-out
Challenge: vemurafenib 300 nM (about IC25), added 48 h after transfection, for 48 h; comparison arm got DMSO vehicle only
Measured: 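Ratios to non-targeting siRNA for cell gain, counted as DAPI nuclei after minus before drug and averaged over two replicates, and for absorbance-read medium lactate per cell; both binned into fold-change classes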
Reading the numbers: cell gain with vemurafenib: higher = more cell gain than with non-targeting siRNA; lactate per cell with vemurafenib: higher = more lactate made per cell
Rule for the call: 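a knock-down counts as enhancing when its fold-change classes with vehicle and with vemurafenib, taken together, show a stronger drug effect on cell gain or lactate per cell; exact class pairs not stated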
Meaning of the calls: active = enhances vemurafenib effect; inactive = no enhancement seen
This is one part, drawn at random, of about 18,000 deposited reagents. Over the whole deposit, 790 (4.4%) got an active call. 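Calls rest on a combination of fold-change classes in drug and vehicle arms, not all shown here.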 A reagent listed more than once was tested more than once; the source does not tell the runs apart.

| cell gain with vemurafenib | lactate per cell with vemurafenib | activity call | Gene | PubChem SID |
| --- | --- | --- | --- | --- |
| 0.41 | 1.34 | inactive | PTPRU | SID152150387 |
| 0.44 | 0.76 | inactive | S100A10 | SID152155719 |
| 0.74 | 0.66 | inactive | STEAP4 | SID152154628 |
| 0.72 | 1.2 | inactive | CR1 | SID152156022 |
| 1.17 | 0.67 | inactive | PAPPA2 | SID135621120 |
| 0.78 | 1.06 | inactive | KRI1 | SID152150241 |
| 0.11 | 0.68 | active | POMT2 | SID152151509 |
| 0.48 | 0.58 | inactive | TSPAN10 | SID135623551 |
| 0.94 | 0.72 | inactive | TCOF1 | SID135622338 |
| 0.71 | 0.62 | inactive | POU2F2 | SID152152014 |
| 0.79 | 0.99 | inactive | NR1H4 | SID152156368 |

3 entries already listed, arranged by “lactate per cell with vemurafenib”, highest first:
| cell gain with vemurafenib | lactate per cell with vemurafenib | activity call | Gene | PubChem SID |
| --- | --- | --- | --- | --- |
| 0.41 | 1.34 | inactive | PTPRU | SID152150387 |
| 0.44 | 0.76 | inactive | S100A10 | SID152155719 |
| 0.74 | 0.66 | inactive | STEAP4 | SID152154628 |

The results go on.
| cell gain with vemurafenib | lactate per cell with vemurafenib | activity call | Gene | PubChem SID |
| --- | --- | --- | --- | --- |
| 0.38 | 1.07 | inactive | ZPR1 | SID135621830 |
| 0.61 | 0.72 | inactive | KMT5B | SID134317594 |
| 0.7 | 0.94 | inactive | TOMM22 | SID152156747 |
| 0.48 | 0.35 | inactive | RFC4 | SID134313549 |
| 0.55 | 0.95 | inactive | TIGD5 | SID135622564 |
| 0.45 | 1.29 | inactive | DOHH | SID152147582 |
| 0.59 | 0.71 | inactive | ATL1 | SID152148207 |
| 0.55 | 1.46 | inactive | STK40 | SID56479025 |
| 0.56 | 1.38 | inactive | STK40 | SID56479025 |
| 0.3 | 0.3 | inactive | RBM47 | SID152150867 |
| 0.73 | 0.83 | inactive | PPP1R14A | SID152154106 |
| 0.07 | 1.73 | inactive | LPAR5 | SID134310548 |
| 0.5 | 1.14 | inactive | ZNF33B | SID135625561 |
| 0.83 | 1.27 | inactive | SPECC1 | SID152149553 |
| 0.15 | 2.58 | inactive | PSMC2 | SID134313078 |
| 0.14 | 3.92 | inactive | LINC00174 | SID152149382 |
| 0.78 | 1.21 | inactive | ZNF653 | SID152151806 |
| 0.38 | 0.87 | inactive | KCNS3 | SID134311695 |
| 0.65 | 1 | inactive | MCEE | SID134320671 |
| 0.46 | 1.7 | inactive | OBP2A | SID152154843 |
| 0.99 | 0.88 | inactive | OR13C4 | SID152152005 |
| 0.88 | 0.55 | inactive | BRMS1L | SID135622831 |
| 0.08 | 1.64 | inactive | DIPK1B | SID135623119 |
